Source: the supplement of paper PMC7666118
The list shows a part of the results.

The chains behind the UniProt entries cited, without tags or fusion partners. Where a name states a change or a piece, a line headed by the entry shows the natural chain unless it says otherwise.
UniProt P52655, whole entry: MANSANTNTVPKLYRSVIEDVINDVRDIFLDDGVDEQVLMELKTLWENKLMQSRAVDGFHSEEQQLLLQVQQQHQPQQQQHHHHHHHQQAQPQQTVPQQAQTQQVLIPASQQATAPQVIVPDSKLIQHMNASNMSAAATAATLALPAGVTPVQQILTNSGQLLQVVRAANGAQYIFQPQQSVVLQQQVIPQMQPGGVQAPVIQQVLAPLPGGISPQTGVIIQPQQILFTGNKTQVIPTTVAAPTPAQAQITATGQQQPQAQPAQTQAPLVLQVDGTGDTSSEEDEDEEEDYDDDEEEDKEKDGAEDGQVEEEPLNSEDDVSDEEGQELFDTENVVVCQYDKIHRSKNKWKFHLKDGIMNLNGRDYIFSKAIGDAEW
UniProt Q9BQQ3: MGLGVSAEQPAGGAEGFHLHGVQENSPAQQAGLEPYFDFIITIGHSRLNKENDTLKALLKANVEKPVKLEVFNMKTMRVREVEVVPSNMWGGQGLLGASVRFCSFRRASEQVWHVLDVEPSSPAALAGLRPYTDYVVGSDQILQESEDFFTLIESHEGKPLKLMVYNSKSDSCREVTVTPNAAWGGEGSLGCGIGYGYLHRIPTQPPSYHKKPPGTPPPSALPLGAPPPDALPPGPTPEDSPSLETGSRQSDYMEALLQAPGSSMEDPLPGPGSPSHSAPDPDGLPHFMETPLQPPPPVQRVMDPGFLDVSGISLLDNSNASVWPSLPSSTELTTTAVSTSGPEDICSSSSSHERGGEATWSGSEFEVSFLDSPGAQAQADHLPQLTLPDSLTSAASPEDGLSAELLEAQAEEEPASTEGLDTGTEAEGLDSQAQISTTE
UniProt P26583: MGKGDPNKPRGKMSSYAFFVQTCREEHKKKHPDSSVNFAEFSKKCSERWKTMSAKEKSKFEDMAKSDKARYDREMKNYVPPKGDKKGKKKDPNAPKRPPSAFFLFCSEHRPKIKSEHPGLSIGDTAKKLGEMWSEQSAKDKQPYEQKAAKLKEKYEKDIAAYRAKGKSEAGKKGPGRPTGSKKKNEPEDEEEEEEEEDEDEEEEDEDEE
UniProt O43292: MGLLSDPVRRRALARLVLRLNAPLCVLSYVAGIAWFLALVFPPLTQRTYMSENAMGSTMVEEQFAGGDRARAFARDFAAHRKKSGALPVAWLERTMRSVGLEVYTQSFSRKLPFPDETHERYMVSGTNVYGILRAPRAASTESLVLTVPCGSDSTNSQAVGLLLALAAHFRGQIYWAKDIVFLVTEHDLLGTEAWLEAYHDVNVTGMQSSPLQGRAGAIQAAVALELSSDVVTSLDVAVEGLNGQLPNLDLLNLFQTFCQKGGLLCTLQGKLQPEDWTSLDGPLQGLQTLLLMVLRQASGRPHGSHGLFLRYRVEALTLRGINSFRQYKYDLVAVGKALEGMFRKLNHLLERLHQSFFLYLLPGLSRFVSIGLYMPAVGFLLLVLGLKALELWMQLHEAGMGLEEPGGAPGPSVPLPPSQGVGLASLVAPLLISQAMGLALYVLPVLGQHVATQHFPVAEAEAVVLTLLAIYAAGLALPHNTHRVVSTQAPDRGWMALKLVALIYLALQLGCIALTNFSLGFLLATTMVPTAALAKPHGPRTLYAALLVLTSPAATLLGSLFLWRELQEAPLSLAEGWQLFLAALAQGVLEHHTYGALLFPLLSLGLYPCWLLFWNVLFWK
UniProt P52758: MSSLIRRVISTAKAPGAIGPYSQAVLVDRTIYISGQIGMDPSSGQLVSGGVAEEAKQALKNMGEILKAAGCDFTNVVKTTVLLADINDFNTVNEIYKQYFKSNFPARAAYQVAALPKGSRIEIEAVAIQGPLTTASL
UniProt Q5T447: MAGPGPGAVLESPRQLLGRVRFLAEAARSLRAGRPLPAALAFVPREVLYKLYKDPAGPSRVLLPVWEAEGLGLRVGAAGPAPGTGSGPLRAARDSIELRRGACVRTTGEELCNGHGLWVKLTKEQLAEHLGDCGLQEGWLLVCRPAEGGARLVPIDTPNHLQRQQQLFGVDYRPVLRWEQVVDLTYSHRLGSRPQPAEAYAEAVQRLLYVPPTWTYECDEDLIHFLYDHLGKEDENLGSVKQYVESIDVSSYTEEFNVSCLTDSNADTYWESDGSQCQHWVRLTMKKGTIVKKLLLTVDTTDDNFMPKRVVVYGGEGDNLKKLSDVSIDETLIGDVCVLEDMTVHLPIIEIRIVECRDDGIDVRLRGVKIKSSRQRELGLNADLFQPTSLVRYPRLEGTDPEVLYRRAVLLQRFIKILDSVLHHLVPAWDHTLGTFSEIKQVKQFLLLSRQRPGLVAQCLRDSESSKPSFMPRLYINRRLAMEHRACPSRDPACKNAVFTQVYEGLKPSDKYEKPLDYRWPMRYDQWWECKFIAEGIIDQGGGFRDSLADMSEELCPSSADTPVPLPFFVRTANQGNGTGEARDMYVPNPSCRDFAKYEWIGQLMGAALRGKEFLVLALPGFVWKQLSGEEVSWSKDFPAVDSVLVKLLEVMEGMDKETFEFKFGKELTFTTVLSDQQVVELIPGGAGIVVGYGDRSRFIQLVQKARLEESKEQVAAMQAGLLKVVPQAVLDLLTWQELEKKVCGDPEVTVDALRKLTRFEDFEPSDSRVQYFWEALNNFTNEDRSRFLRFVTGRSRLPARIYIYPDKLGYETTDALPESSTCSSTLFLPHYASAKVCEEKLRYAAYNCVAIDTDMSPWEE
UniProt Q9BW71: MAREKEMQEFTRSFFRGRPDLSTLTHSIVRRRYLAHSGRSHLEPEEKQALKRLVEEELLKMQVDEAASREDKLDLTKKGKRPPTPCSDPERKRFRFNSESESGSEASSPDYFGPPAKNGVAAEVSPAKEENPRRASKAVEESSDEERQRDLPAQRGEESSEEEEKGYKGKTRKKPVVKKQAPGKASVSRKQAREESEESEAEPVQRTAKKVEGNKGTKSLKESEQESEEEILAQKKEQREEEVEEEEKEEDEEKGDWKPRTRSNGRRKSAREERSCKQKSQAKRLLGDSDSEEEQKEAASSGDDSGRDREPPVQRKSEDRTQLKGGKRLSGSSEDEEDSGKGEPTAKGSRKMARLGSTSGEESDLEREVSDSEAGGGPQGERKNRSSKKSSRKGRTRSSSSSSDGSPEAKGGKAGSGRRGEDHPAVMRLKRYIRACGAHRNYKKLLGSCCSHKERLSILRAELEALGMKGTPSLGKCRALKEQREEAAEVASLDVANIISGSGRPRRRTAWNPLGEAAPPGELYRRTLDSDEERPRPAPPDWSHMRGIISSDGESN
UniProt Q5GLZ8: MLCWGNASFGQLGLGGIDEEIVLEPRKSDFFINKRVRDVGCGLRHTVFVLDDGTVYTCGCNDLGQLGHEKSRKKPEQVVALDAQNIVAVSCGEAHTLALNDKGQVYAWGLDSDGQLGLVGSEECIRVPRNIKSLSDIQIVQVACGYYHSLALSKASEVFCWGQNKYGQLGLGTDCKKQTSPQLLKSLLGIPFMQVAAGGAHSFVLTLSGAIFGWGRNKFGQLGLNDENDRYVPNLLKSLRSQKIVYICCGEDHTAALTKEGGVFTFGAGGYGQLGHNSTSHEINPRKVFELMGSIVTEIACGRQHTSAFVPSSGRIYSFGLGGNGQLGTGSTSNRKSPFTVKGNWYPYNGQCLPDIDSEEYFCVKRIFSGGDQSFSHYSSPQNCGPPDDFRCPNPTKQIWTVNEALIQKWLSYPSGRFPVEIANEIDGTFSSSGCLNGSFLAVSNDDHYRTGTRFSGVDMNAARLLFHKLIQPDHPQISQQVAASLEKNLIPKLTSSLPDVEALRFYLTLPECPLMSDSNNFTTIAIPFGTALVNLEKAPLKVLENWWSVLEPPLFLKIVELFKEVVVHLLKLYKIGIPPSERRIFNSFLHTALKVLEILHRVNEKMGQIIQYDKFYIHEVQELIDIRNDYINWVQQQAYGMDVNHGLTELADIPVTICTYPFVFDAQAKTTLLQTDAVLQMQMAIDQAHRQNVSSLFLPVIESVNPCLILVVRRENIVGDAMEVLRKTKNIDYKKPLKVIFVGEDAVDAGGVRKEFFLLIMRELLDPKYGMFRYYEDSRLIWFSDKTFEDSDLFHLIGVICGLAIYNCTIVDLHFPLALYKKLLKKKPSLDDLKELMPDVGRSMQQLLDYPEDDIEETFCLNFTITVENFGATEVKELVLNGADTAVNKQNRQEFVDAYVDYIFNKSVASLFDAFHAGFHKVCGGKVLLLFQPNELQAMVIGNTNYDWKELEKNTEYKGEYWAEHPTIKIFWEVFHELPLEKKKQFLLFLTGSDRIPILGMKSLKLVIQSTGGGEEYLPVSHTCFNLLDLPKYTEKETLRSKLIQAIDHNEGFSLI
UniProt P14210, whole entry: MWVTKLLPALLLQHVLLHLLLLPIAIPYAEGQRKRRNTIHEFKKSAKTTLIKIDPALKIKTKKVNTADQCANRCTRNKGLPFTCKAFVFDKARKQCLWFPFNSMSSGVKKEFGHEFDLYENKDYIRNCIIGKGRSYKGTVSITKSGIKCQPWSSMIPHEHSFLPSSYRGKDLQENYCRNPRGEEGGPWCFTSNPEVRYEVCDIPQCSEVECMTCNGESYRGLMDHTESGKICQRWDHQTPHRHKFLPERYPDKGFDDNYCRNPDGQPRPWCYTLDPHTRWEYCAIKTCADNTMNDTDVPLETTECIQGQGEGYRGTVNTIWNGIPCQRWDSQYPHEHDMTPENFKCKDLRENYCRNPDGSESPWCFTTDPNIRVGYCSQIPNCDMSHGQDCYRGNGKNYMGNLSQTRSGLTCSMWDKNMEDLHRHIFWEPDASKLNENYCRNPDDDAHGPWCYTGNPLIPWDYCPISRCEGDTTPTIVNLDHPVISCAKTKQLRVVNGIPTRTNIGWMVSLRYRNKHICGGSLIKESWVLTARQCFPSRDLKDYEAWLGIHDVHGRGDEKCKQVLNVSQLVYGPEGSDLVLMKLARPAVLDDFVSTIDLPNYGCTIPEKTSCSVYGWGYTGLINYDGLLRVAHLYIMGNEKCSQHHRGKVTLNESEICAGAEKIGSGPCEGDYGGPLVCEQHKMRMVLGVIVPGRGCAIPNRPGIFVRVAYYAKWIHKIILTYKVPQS

Each target was assayed with COc1ccc(Cn2ccc3cc(C)c(C(=O)NO)cc32)cc1 (assay: dose-dependent thermal stabilisation call (2D-TPP, DLPTP, 10% FDR) (binary (1 = stabilised)); higher = stabilised by the compound). Settings: system: HL-60 intact cells; concentration range 0.04-10 µM.
Description: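 2D thermal proteome profiling in intact HL-60 cells treated with BRD-3811 (0, 0.04, 0.29, 2, 10 uM) for 90 min at 37 C, then heated 3 min at one of 12 temperatures (42-63.9 C). Soluble protein was quantified by TMT10 MS. The value is the DLPTP call of the paper: dose-dependent thermal stabilisation over all temperatures at 10% FDR (F-test of a dose-response against a flat model); one experiment, one call per tested protein.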

Target	dose-dependent thermal stabilisation call
GTF2A1 (UniProt P52655)	inactive: 0
GORASP1 (UniProt Q9BQQ3)	inactive: 0
HMGB2 (UniProt P26583)	inactive: 0
GPAA1 (UniProt O43292)	inactive: 0
HRSP12 (UniProt P52758)	inactive: 0
HECTD3 (UniProt Q5T447)	inactive: 0
HIRIP3 (UniProt Q9BW71)	inactive: 0
HERC4 (UniProt Q5GLZ8)	inactive: 0
HGF (UniProt P14210)	inactive: 0

An excerpt from further up, for reference:
Target	dose-dependent thermal stabilisation call
HIRIP3 (UniProt Q9BW71)	inactive: 0
HERC4 (UniProt Q5GLZ8)	inactive: 0
